# Assay results taken from PubChem BioAssay (Tox21).
# Chains of the proteins cited; added tags and fusions are not shown. Lines headed by an entry give the natural chain unless they say otherwise; changes in a name come on top.
# UniProt O75469: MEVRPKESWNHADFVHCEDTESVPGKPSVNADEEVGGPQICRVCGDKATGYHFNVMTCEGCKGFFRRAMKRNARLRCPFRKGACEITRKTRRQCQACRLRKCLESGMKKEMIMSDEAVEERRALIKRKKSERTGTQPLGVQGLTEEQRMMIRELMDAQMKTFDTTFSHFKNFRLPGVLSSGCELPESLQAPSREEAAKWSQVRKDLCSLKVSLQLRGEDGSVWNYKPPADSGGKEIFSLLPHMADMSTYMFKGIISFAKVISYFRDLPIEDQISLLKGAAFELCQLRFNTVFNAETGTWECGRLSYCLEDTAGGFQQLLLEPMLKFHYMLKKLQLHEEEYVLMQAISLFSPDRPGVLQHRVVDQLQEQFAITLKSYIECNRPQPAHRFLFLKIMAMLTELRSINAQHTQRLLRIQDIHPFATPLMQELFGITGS
# UniProt P10635, whole entry, looked up: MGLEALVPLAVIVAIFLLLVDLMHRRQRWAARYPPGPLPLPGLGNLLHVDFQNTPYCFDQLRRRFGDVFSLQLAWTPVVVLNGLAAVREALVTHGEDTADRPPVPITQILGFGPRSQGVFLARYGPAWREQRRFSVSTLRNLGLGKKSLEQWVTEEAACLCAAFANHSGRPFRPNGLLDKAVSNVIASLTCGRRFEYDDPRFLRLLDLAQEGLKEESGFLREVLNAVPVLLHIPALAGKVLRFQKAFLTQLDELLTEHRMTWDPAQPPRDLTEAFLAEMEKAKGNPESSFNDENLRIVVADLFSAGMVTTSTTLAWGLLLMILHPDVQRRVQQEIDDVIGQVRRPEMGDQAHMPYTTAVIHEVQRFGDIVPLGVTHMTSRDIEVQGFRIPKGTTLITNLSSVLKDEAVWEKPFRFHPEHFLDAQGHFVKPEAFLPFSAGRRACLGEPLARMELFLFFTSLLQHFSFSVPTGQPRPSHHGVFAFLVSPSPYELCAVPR
# UniProt P33261, whole entry, looked up: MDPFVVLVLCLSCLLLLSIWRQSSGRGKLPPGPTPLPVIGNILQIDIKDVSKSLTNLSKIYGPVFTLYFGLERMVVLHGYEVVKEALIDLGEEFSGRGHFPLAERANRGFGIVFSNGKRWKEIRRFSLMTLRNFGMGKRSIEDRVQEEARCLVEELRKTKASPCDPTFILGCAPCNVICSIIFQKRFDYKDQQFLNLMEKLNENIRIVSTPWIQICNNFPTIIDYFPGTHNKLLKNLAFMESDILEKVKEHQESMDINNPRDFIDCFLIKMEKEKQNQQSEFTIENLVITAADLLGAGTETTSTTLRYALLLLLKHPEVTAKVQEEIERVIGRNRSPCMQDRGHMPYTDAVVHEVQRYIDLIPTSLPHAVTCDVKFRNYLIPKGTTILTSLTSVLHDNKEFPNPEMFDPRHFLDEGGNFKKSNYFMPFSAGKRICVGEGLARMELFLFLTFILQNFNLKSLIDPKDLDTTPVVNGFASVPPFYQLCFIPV
# UniProt P11712, whole entry, looked up: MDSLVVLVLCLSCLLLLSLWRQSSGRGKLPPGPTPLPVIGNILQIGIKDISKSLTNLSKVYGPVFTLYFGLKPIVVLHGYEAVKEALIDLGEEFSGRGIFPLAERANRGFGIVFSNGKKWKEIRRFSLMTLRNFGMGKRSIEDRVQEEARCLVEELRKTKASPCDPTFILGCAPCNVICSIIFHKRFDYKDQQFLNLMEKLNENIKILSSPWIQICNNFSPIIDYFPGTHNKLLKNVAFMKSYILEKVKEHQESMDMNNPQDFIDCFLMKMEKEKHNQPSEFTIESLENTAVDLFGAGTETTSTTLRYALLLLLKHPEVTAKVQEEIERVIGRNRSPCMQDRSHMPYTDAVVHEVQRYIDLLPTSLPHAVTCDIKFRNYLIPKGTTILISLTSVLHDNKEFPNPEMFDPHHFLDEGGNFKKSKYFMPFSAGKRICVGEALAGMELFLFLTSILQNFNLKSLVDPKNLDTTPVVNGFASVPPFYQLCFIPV
# Where “and” joins values, the source holds several entries; their conditions need not be identical. Identical values can stand only once. Inconclusive means that the source gave no clear call. Such entries were picked first, then a sample of the others. Potencies of inconclusive entries are doubtful fits and often do not repeat. A structure can be active in one record and inactive in another. Calls of active or inactive are those of the source. Calls come from the whole dose curve; as a rule, active = well fitted curve in the direction sought with a large enough effect in the repeat runs; inconclusive = weak or mixed curves; inactive = no such curve, though single readings can be large; an effect the other way counts as inactive or inconclusive.
# Molecular target: Nuclear receptor subfamily 1 group I member 2 (Homo sapiens) (UniProt O75469)
# Assay: Human pregnane X receptor (PXR) small molecule agonists, qHTS assay (AID 1346982); note: nearly all actives have a fitted effect of over 35% in size
# Details: PXR-Luc HepG2, CYP3A4 luciferase reporter, 24 h; series mostly up to 92.4 µM; activation: at the top concentration
# Outline: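 After plating in 5% charcoal-stripped FBS and a 5 hr rest, PXR-Luc HepG2 cells received compounds in DMSO. Following 24 hr at 37 C, ONE-Glo was added and light output read.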
# Potency is the fitted concentration of half-maximal effect.
row,Compound,Potency
1,CC(C)CC(=O)OCc1ccccc1,"inconclusive: 68.6 µM [activator, single point]"
2,CC1(C)C(C=C(Cl)Cl)C1C(=O)OCc1cccc(Oc2ccccc2)c1 (configuration not stated),"active: 24.2 µM and inconclusive: 27.3 µM [activator, partial curve]"
3,O=C(OCC1CO1)C1CCCCC1C(=O)OCC1CO1 (configuration not stated),"inconclusive: 19.4 µM [activator, partial curve]"
4,CN1CCN(Cc2cc(-c3ccc4[nH]c(=O)oc4c3)co2)[C@@H](c2ccc(F)cc2)C1,active: 10.5 µM
5,CCCCCCC1CCCC(=O)O1 (configuration not stated),"inconclusive: 24.3 µM [activator, partial curve]"
6,CCC1CCC(CCC(=O)O)C1 (configuration not stated),inconclusive: 62.5 µM [activator]

# Molecular target: Cytochrome P450 2D6 (Homo sapiens) (UniProt P10635)
# Assay: Cytochrome P450 Family 2 Subfamily D Member 6 (CYP2D6) small molecule antagonists: luciferase reporter qHTS assay (AID 1671196); note: nearly all actives have a fitted effect of over 50% in size; for activity change, negative = inhibition: % is set by controls: 0 for no effect and ±100 for the full control effect
# Details: P450-Glo CYP2D6 enzyme assay, luciferin luminescence, 1 h; series mostly up to 115 µM; activity change, negative = inhibition: at the top concentration
# Outline: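 Quantitative HTS of Tox21 chemicals against CYP2D6 using a luminescent proluciferin substrate. After NADPH addition, 1 h room-temperature reaction; luminescence recorded 20 min post detection reagent.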
Compound,"activity change, negative = inhibition",Potency
Brc1c2ccccc2cc2ccccc12,inactive: -17.2%,
O=C(c1ccc(O)cc1)c1ccc(Cl)cc1,,active: 64.7 µM
CC1=C(/C=C/C(C)=C\C=C\C(C)=C\C(=O)O)C(C)(C)CCC1,,"inconclusive: 44.8 µM [inhibitor, partial curve, poor fit]"
CC1(C)C(C=C(Cl)Cl)C1C(=O)OCc1cccc(Oc2ccccc2)c1 (configuration not stated),,"inconclusive: 35.3 µM [inhibitor, partial curve] and inconclusive: 15.9 µM [inhibitor, full curve]"
CN1CCN(Cc2cc(-c3ccc4[nH]c(=O)oc4c3)co2)[C@@H](c2ccc(F)cc2)C1,,active: 34.3 µM
CCCCCCC1CCCC(=O)O1 (configuration not stated),,"inconclusive: 35.6 µM [inhibitor, partial curve]"
CCC1CCC(CCC(=O)O)C1 (configuration not stated),inactive: -12.1%,
CCCCC(CC)COC(=O)CCCCCCCC(=O)OCC(CC)CCCC (configuration not stated),,active: 71 µM

# Molecular target: Cytochrome P450 2C19 (Homo sapiens) (UniProt P33261)
# Assay: Cytochrome P450 Family 2 Subfamily C Member 19 (CYP2C19) small molecule antagonists: luciferase reporter qHTS assay (AID 1671197); note: nearly all actives have a fitted effect of over 65% in size
# Details: P450-Glo CYP2C19 enzyme, luciferin luminescence, 1 h; series mostly up to 115 µM; activity change, negative = inhibition: at the top concentration
# Outline: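 Light output is proportional to CYP2C19 activity: proluciferin substrate is converted to luciferin, then detected by a luciferin detection reagent that also stops the 1 h, 37C NADPH-driven reaction. Ketoconazole serves as positive control.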
row,Compound,Potency
1,CN(CCOc1ccc(CC2SC(=O)NC2=O)cc1)c1ccccn1 (configuration not stated),"inconclusive: 88.8 µM [inhibitor, single point]"
2,CN1CCN(Cc2cc(-c3ccc4[nH]c(=O)oc4c3)co2)[C@@H](c2ccc(F)cc2)C1,"inconclusive: 76.7 µM [inhibitor, single point]"
3,CCCOc1ccc2c(c1)CC[C@@H]1[C@@H]2CC[C@]2(C)C(OC)CC[C@@H]12 (some centres not stated),"inconclusive: 38.9 µM [inhibitor, single point]"

# Molecular target: Cytochrome P450 2C9 (Homo sapiens) (UniProt P11712)
# Assay: Cytochrome P450 Family 2 Subfamily C Member 9 (CYP2C9) small molecule antagonists: luciferase reporter qHTS assay (AID 1671198); note: nearly all actives have a fitted effect of over 50% in size; for activity change, negative = inhibition: % is set by controls: 0 for no effect and ±100 for the full control effect
# Details: P450-Glo CYP2C9 enzyme assay, luciferin luminescence; series mostly up to 115 µM; activity change, negative = inhibition: at the top concentration
# Outline: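 P450-Glo proluciferin substrate with CYP2C9 enzyme; 10 min RT preincubation, then NADPH regeneration 1 h at 37C; luciferin detection reagent 20 min RT, luminescence in relative luminescence units.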
Compound,Potency,"activity change, negative = inhibition"
C[C@H]1c2cccc(O)c2C(O)=C2C(=O)[C@]3(O)C(O)=C(C(N)=O)C(=O)[C@@H](N(C)C)[C@@H]3[C@@H](O)[C@@H]21,"inconclusive: 15.5 µM [inhibitor, partial curve, poor fit]",
Brc1c2ccccc2cc2ccccc12,active: 35.9 µM,
COC(=O)c1ccccc1O,"inconclusive: 63.5 µM [inhibitor, partial curve] and inactive",
CC1=C(/C=C/C(C)=C\C=C\C(C)=C\C(=O)O)C(C)(C)CCC1,inconclusive: 39.9 µM [inhibitor],
O=C(OCC1CO1)C1CCCCC1C(=O)OCC1CO1 (configuration not stated),inconclusive: 35.6 µM [inhibitor],
CN1CCN(Cc2cc(-c3ccc4[nH]c(=O)oc4c3)co2)[C@@H](c2ccc(F)cc2)C1,,inactive: -7.87%
CCCCC(=O)N(C)C,,inactive: -0.584%
Clc1ccc(Sc2cc(Cl)c(Cl)cc2Cl)cc1,inactive,
CCCCCC(C)OC(=O)COc1ccc(Cl)c2cccnc12 (configuration not stated),active: 11.2 µM,
CCCOc1ccc2c(c1)CC[C@@H]1[C@@H]2CC[C@]2(C)C(OC)CC[C@@H]12 (some centres not stated),active: 34.7 µM,
